{"source": "patent US11772041B2", "about": "“Composite amine absorbent, and device and method for removing CO2 or H2S, or both of CO2 and H2S” (MITSUBISHI HEAVY INDUSTRIES, LTD., priority 2019, dated 2023)", "assay": "Solubility in water of ether bond-containing compounds", "assay_type": "physicochemical", "from_the_text": "The solubilities in water of the first ether bond-containing compound (propylene glycol monopropyl ether) in Test Example 1, the first ether bond-containing compound (dipropylene glycol monopropyl ether) in Test Example 7, and the ether bond-containing compound of the chemical formula I wherein R^2 has 4 (C4) or more carbon atoms (butylene glycol monobutyl ether) were compared.\nThe solubilities in water of the first ether bond-containing compound (propylene glycol monopropyl ether) in Test Example 1, the ether bond-containing compound (dipropylene glycol monopropyl ether) in Test Example 7, and the ether bond-containing compound of the chemical formula I wherein R^3 is an alkyl group (propylene glycol dibutyl ether) were compared.", "note": "Some entries share one result that the patent states for a list of compounds.", "data": [{"smiles": "CCCOC(C)COC(C)CO", "note": "(centres unmarked) [Dipropylene glycol monopropyl ether, dipropylene glycol monopropyl ether]", "values": [{"measurement": "Solubility in water (% by weight)", "setting": "Table 3, Test Example 21", "value": "20 or more % by weight"}, {"measurement": "Solubility in water (% by weight)", "setting": "Table 4, Test Example 22", "value": "20 or more % by weight"}]}]}
